# Assay results reported in PMC12387760.
# These are yes or no findings as the source states them, for the method shown. In cells and extracts the contact can be indirect. Some results given as binding are weak or reduced against the parent protein; the word gives no strength. Sequences can lack the tags named with a protein.
# Target: T1, Nucleolar and coiled-body phosphoprotein 1 (NOLC1), Flag-tagged (human) (UniProt Q14978)
# T1 sequence: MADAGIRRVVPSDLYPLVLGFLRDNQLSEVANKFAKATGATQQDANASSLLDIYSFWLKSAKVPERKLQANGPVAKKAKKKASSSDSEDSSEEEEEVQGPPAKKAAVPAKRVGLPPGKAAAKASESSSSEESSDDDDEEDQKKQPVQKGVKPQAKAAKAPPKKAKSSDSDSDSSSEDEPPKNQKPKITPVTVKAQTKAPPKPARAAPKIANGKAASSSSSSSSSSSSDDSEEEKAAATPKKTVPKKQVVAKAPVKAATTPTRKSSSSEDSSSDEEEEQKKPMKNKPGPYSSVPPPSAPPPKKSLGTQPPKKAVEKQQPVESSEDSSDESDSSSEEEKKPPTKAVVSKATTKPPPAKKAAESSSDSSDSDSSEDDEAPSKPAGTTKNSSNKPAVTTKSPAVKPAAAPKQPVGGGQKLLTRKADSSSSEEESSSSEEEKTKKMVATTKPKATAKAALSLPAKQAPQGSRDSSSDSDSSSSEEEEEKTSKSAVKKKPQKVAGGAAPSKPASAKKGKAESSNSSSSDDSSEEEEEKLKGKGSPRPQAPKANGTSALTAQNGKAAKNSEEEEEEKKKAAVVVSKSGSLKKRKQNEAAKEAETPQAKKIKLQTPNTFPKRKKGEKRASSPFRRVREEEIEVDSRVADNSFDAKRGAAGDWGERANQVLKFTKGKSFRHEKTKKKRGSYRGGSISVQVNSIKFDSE
# Test: co-IP; HEK-293T cells transfected with the plasmids, lysed 48 hr later in IP lysis buffer; anti-Flag magnetic beads immunoprecipitate NOLC1-Flag; immunoblotting
substance,measurement,value
"p53, HA-tagged (from UniProt P04637 1-393)",binding,binds
